Experimental data taken from publication PMC9579143.
No constants are given. Whether binding was seen depends on the method and setting. Binding seen in cells or lysates may run through a third protein. Some entries that bind do so weakly or less than the wild type.

The chains behind the UniProt entries cited, without tags or fusion partners.
UniProt O00308: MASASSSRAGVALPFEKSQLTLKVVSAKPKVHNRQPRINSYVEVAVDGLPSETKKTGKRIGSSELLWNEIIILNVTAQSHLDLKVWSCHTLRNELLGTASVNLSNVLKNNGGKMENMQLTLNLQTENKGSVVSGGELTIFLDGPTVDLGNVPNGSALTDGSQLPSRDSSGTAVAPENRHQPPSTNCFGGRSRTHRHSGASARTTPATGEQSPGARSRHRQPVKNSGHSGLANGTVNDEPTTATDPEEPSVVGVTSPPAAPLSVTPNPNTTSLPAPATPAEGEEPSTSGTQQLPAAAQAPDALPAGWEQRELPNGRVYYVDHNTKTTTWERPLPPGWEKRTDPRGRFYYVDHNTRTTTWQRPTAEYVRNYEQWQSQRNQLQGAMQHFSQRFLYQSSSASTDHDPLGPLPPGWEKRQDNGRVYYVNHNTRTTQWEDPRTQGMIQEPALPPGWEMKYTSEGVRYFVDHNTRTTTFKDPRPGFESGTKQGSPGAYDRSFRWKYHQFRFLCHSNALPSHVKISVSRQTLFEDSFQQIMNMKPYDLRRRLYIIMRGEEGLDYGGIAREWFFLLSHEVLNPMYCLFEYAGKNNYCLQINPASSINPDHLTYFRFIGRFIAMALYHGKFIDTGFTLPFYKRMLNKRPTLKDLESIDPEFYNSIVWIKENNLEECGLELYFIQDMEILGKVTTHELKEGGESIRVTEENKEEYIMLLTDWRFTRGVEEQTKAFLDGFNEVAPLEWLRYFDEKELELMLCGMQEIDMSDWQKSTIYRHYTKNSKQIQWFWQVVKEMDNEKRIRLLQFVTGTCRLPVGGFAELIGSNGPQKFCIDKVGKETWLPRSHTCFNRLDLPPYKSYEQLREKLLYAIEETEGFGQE
UniProt P09874: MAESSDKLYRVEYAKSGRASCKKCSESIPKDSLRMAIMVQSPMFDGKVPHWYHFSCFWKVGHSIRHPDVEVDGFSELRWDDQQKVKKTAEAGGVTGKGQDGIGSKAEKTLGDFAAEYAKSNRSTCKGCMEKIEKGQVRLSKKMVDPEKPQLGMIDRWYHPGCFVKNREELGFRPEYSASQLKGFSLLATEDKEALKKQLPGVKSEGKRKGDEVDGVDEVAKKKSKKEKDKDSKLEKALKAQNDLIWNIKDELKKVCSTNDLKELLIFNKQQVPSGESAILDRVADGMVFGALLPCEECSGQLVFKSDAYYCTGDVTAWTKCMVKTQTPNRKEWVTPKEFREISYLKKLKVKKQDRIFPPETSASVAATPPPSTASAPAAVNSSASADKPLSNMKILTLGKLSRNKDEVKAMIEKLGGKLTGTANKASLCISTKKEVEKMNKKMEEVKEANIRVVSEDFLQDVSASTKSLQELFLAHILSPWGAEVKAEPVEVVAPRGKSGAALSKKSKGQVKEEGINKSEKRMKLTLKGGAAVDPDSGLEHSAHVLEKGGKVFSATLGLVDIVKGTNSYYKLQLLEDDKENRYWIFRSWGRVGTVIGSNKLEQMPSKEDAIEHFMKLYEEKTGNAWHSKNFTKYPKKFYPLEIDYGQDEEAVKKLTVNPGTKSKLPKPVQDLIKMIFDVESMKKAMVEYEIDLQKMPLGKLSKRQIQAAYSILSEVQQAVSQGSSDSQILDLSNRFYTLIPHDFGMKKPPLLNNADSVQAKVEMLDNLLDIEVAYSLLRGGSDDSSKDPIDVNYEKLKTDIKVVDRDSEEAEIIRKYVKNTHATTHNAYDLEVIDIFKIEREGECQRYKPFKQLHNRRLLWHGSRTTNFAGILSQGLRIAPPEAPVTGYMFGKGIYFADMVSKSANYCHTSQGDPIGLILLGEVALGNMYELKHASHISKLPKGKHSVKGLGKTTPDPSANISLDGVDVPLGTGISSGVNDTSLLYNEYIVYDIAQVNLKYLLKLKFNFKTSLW

What was measured:
[1] = target: HA-WWP2 (human) (UniProt O00308); test: co-IP; half-exogenous: Jurkat cells transfected with HA-WWP2, endogenous PARP1; lysate with specific antibodies and magnetic beads, 4 °C 12 h; with or without MG132
[2] = target: WWP2 (human (endogenous in Jurkat)) (UniProt O00308); test: co-IP; endogenous proteins in Jurkat cell lysate (1% NP-40, 137 mmol/L NaCl, pH 7.8), specific antibodies and magnetic beads, 4 °C 12 h; both directions; cells untreated, with Dox (0.2 μM) or with MG132

binding [1]: binds
binding [2]: binds
Substance: Poly (ADP-ribose) polymerase 1 (PARP1) (from UniProt P09874 1-1014) (enzyme)
